This passage reports binding results from PMC6963406.

Where a chain is given by its changes, count along the chain named. These are yes or no findings as the source states them, for the method shown. Binding seen in cells or lysates may run through a third protein. Some results given as binding are weak or reduced against the parent protein; the word gives no strength. Where a sequence is shown, tags or fusion partners need not be part of it.

In assay [1] the target is T1, LEAFY (LFY), wild type, C-terminal GFP or RFP fusion (Arabidopsis thaliana) (UniProt Q00958).
T1 sequence: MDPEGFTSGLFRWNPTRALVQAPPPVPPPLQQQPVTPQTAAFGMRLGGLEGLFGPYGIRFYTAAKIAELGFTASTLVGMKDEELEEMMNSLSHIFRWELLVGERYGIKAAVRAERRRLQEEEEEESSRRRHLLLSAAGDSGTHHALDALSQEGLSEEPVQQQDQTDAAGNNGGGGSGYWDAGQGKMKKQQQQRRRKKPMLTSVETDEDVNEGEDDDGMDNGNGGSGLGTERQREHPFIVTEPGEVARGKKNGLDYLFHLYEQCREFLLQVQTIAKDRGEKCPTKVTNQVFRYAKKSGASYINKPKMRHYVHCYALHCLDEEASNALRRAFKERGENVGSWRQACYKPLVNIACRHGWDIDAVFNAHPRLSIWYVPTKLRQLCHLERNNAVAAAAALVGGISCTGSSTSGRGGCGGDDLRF
In words: FRET or BRET; in vivo FRET-FLIM; C-terminal GFP fusions (donors) and C-terminal RFP fusions (acceptors) transiently co-expressed in N. benthamiana epidermal leaf cells; GFP fluorescence lifetime measured in the nuclei; donor-only samples as reference.

In assay [2] the target is T2, LFY^FIF (LEAFY with the Cys263-to-Tyr exchange of the fif allele), C-terminal GFP or RFP fusion (Arabidopsis thaliana) (UniProt Q00958).
T2 sequence: T1 sequence with C263Y
The description is as above.

B1: LEAFY (LFY), wild type, C-terminal GFP or RFP fusion (protein, UniProt Q00958 1-420)
chain: T1 sequence
B1: the binding entry in assay [1] and in assay [2] was “binds” throughout.

B2: LFY^FIF (LEAFY with the Cys263-to-Tyr exchange of the fif allele), C-terminal GFP or RFP fusion (protein, UniProt Q00958 1-420)
chain: T1 sequence with C263Y
For B2, the binding entry in assay [1] and in assay [2] was “binds” each time.
